The other results are listed elsewhere or left out. Further columns of the screen follow, without active or inactive calls. Compounds called inactive in the main read-out are mostly missing here. Words in brackets tell the shape of the fitted curve; partial curves, single points and poor fits give uncertain potencies.
Assay: qHTS Assay for Lipid Storage Modulators in Drosophila S3 Cells;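 for cell number change: cells counted by Cell Tracker Red CMTPX staining in the red channel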
Conditions: BODIPY lipid droplet fluorescence, 18-24 h; for cell number change: measured here: cell count max response, cells fed with added oleic acid
Method in brief: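 Drosophila S3 cells got compounds at several concentrations plus oleic acid (400 uM solution). Laser-scanning cytometry with 488 nm excitation read lipid droplets at 500-530 nm and cells at 575-640 nm. Percent activity was relative to 20 uM Triacsin C.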

[1] = measured here: lipid fluorescence (Fed channel) AC50, cells fed with added oleic acid
[2] = measured here: cell number channel AC50, cells fed with added oleic acid

Row | Compound | cell number change | AC50 [1] | AC50 [2]
1 | CN(Cc1ccccc1)C(=S)NC(=O)c1ccc(-c2ccccc2)cc1 | -15.7% | 18.4 µM [falling, single point] | 
2 | CCn1c2ccccc2c2cc(NC(=O)c3cccc([N+](=O)[O-])c3)ccc21 | 7.42% |  | 
3 | COc1cc(C2C(C#N)=C(N)N(Nc3ccccc3)C3=C2C(=O)CC(C)(C)C3)ccc1OCc1ccccc1 (configuration not stated) | -21.3% | 29.1 µM [falling, single point] | 0.0231 µM [rising, single point]
4 | COc1cccc2c1N1C(=O)c3c(C(=O)O)cccc3C1CC2(C)C (configuration not stated) | -7.1% | 0.00461 µM [falling, full curve, poor fit] | 
5 | COC(=O)COc1ccc(/C=C2\SC(=O)N(CC(=O)Nc3ccccc3F)C2=O)cc1 | 29.6% | 3.66 µM [rising, full curve] | 
6 | COc1ccc(-n2nc(C(=O)NCC(=O)N3CCN(c4ccccc4)CC3)c3ccccc3c2=O)c(OC)c1 | 11.7% |  | 
7 | O=C(CCNC(=O)c1ccccc1Cl)Nc1nc2ccc(F)cc2s1 | -25.8% |  | 
8 | CC(O)CSc1nc2c(c(=O)[nH]c(=O)n2C)n1Cc1ccccc1 (configuration not stated) | -1.05% | 29.1 µM [rising, single point] | 
9 | S=c1[nH]nc(C2CCCCC2)n1/N=C/c1ccccc1Cl | -50.4% | 29.1 µM [falling, single point] | 18.4 µM [falling, single point]
10 | CCOC(=O)c1coc(CNC(=O)c2c(C)oc3c2CCCC3)c1 | 57.8% | 14.6 µM [rising, partial curve] | 3.26 µM [rising, partial curve]
11 | COCCNC(=S)N=Nc1c(O)[nH]c2c(C)cc(C)cc12 | 84.5% | 23.1 µM [rising, single point] | 1.46 µM [rising, full curve]
12 | COc1cc(S(=O)(=O)NCCOC23CC4CC(CC(C4)C2)C3)c(OC)cc1Cl | -1.66% |  | 
13 | CCc1c(C)nc(SCC(=O)CC(=O)OC(C)C)c(C#N)c1C | 32.4% | 29.1 µM [rising, single point] | 
14 | Cc1ccc(CNC(=O)CC2(CC3=NS(=O)(=O)c4ccccc4N3)CCCC2)cc1 | 18.6% | 18.4 µM [falling, single point] | 
15 | Cc1ccc(C)c(NC(=S)c2nc3ccccc3s2)c1 | -43.2% | 29.1 µM [falling, single point] | 23.1 µM [falling, single point]
16 | COc1ccc(Cl)cc1C(=O)Nn1cnnc1 |  | 6.51 µM [rising, single point] | 

Sorted by heavy-atom count (smallest number first): part of the list above.
Row | Compound | cell number change | AC50 [1] | AC50 [2]
8 | CC(O)CSc1nc2c(c(=O)[nH]c(=O)n2C)n1Cc1ccccc1 (configuration not stated) | -1.05% | 29.1 µM [rising, single point] | 
7 | O=C(CCNC(=O)c1ccccc1Cl)Nc1nc2ccc(F)cc2s1 | -25.8% |  | 
14 | Cc1ccc(CNC(=O)CC2(CC3=NS(=O)(=O)c4ccccc4N3)CCCC2)cc1 | 18.6% | 18.4 µM [falling, single point] | 
5 | COC(=O)COc1ccc(/C=C2\SC(=O)N(CC(=O)Nc3ccccc3F)C2=O)cc1 | 29.6% | 3.66 µM [rising, full curve] | 

Reference: PubChem BioAssay AID2685 (National Center for Advancing Translational Sciences (NCATS), 2010)
